# In all, about 330,000 compounds went through this assay and about 7,700 (2.3%) were called active. Inconclusive results, whose numbers are uncertain, are shown with a selection of clear calls. Calls follow the shape of the dose curve; as a rule, active = well fitted inhibition curve with a large enough effect; inconclusive = small, poorly fitted or top-dose-only effect, or effect the other way; inactive = flat fitted curve, though single readings scatter. Potencies beside an inconclusive call are fits to weak or partial responses and may not hold up.
# Experiment: qHTS screen for small molecules that inhibit ELG1-dependent DNA repair in human embryonic kidney (HEK293T) cells expressing luciferase-tagged ELG1; also: nearly all actives have a fitted effect of over 55% in size
# Settings: HEK293T ELG1-luciferase reporter, luminescence, 16 h, DNA damage induced by 5-fluorouridine; series mostly up to 46.1 µM
# Procedure, shortened: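 5-Fluorouridine DNA damage + compound/DMSO, 2,000 cells/well, 16 h, 37 °C/5% CO2. ONE-Glo, 30 min RT, luminescence. Readout = decrease in reporter signal.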
# Potency is read from the fitted curve at half-maximal effect.
row,Compound,Potency
1,C=CCn1c(SCC(=O)Nc2sc(C)c(C)c2C(=O)OCC)nnc1-c1sc(N)nc1C,active: 5.8 µM
2,Fc1cccc(Nc2ncnc3[nH]ncc23)c1,inactive
3,CC1CCN(C(=O)c2cc3nc(C4CC4)cc(C(F)(F)F)n3n2)CC1,"inconclusive: 16.4 µM [inhibitor, partial curve, poor fit]"
4,Cc1cc(=O)n2[nH]c(-c3cccc(Cl)c3)cc2n1,"inconclusive: 11.6 µM [activator, partial curve]"
5,CCC(=O)Nc1ccc(NC(=O)/C=C/c2ccc(Cl)cc2)cc1,"inconclusive: 29.1 µM [activator, single point]"
6,CC(Cc1cccs1)NC(=O)c1cccs1 (stereo not given),"inconclusive: 29.1 µM [activator, single point]"
7,O=C(CCNC(=O)c1ccco1)Nc1ccc(OC(F)F)cc1,inactive
8,COC(=O)[C@]1(Cc2ccccc2)N[C@H](CN(C)C(=O)Nc2ccc(F)cc2)[C@@H]2C(=O)N(Cc3ccccc3)C(=O)[C@@H]21,"inconclusive: 13 µM [inhibitor, partial curve]"
9,Cc1ccc(S(=O)(=O)N(CC2CO2)c2cccc([N+](=O)[O-])c2)cc1 (stereo not given),"inconclusive: 18.3 µM [activator, single point]"
10,c1ccc(Oc2ccc3ccccc3n2)cc1,"inconclusive: 20.6 µM [activator, single point]"
11,Cn1cc(Br)c(C(=O)Nc2nccs2)n1,"inconclusive: 20.6 µM [activator, partial curve, poor fit]"
12,COc1ccc(CNc2ccc([N+](=O)[O-])cn2)cc1,"inconclusive: 14.6 µM [activator, partial curve]"
13,Clc1ccc(-c2cn3cccnc3n2)cc1Cl,"inconclusive: 20.6 µM [activator, partial curve]"
14,COc1ccc(C=NNc2ccc(S(=O)(=O)Nc3ccccc3C(=O)O)cc2[N+](=O)[O-])c(OC)c1,inactive
15,Nc1cc(N)nc(SCC(=O)Nc2ccc3c(c2)OCCCO3)n1,"inconclusive: 20.6 µM [activator, single point]"
16,Cn1c(C(=O)OCC(=O)NCc2ccc(F)cc2)cc2occc21,"inconclusive: 16.4 µM [activator, partial curve, poor fit]"
17,O=C(NNC(=O)c1ccccc1Cl)c1ccc2c(=O)n3c(nc2c1)CCC3,"inconclusive: 32.6 µM [activator, partial curve, poor fit]"
18,CCOC(=O)C1(CC2CC2)CCN(C(=O)c2ocnc2C)CC1,"inconclusive: 16.4 µM [activator, partial curve]"
19,CCCOc1ccc(C(=O)N2CCN(Cc3ccc4c(c3)OCO4)CC2)cc1,inactive
20,CC(=O)C1=C(O)CC(c2ccccc2)CC1=NCCc1c(C)[nH]c2ccc(C)cc12 (stereo not given),inactive
21,O=C(COC(=O)CSc1ccccc1)Nc1ccc(F)cc1F,"inconclusive: 0.231 µM [inhibitor, single point]"
22,O=C(CSc1ccc(-c2cccnc2)nn1)N1CCCC1,"inconclusive: 16.4 µM [activator, single point]"
23,C=CCNC(=O)/C(C#N)=C/c1c(N2CCN(c3ccc(OC)cc3)CC2)nc2c(C)cccn2c1=O,"inconclusive: 25.9 µM [inhibitor, single point]"
24,CCN(CC)S(=O)(=O)c1ccc(/C=C/C(=O)Nc2ccccc2N2CCOCC2)cc1,"inconclusive: 29.1 µM [inhibitor, partial curve, poor fit]"

row,Compound,Potency
1,CCOCc1c(C(=O)NC2CCCCCC2)oc2ccccc12,"inconclusive: 29.1 µM [inhibitor, single point]"
2,CC(C)c1ccc(CN2C(=O)c3ccccc3S2(=O)=O)cc1,"inconclusive: 23.1 µM [activator, partial curve]"
3,O=C(CCN1C(=O)C2C3CCC(C3)C2C1=O)Nc1ccc(Cl)cc1Cl (stereo not given),"inconclusive: 6.51 µM [activator, single point]"
4,O=C(/C=C/c1ccc(Cl)cc1)NC(=S)Nc1ccc(N2CCOCC2)c(Cl)c1,"inconclusive: 20.6 µM [activator, partial curve, poor fit]"
5,Cc1ccc(S(=O)(=O)N(C)C)cc1NC(=O)COC(=O)CSc1ccccc1,inactive
6,COc1cccc(C(=O)NN2C(=S)N(c3ccccc3)C(=O)C2CC(N)=O)c1 (stereo not given),"inconclusive: 4.61 µM [activator, partial curve]"
7,CC(=O)Nc1ccc(Nc2cc(-c3ccccc3)nc3ncnn23)cc1,inactive
8,Cc1ccc(CC(=O)NCC2CCCCC2)cc1,"inconclusive: 23.1 µM [activator, single point]"
9,CC(=O)c1sc(NC(=O)CCN2C(=O)c3ccccc3C2=O)nc1C,inactive
10,COc1ccc(C(=O)CSc2nnn(-c3cccc(NC(C)=O)c3)n2)cc1,"inconclusive: 9.2 µM [activator, partial curve, poor fit]"
11,COc1ccc(CN2CCNC(=O)C2CC(=O)NCc2csc(C)n2)c(F)c1 (stereo not given),inactive
12,COc1cc(-c2nnc(NC(=O)c3ccc(S(=O)(=O)N4CCOCC4)cc3)o2)cc(OC)c1OC,inactive
13,CC(=O)c1ccc(NC(=O)c2noc(C)c2[N+](=O)[O-])cc1,"inconclusive: 18.3 µM [activator, single point]"
14,COc1ccc(C(=O)Nc2cccc(C(C)=O)c2)c(OC)c1OC,"inconclusive: 3.26 µM [activator, full curve]"
15,CC(Sc1nnc(C2CC2)n1N)C(=O)NC1CCCCC1C (stereo not given),"inconclusive: 0.58 µM [inhibitor, partial curve, poor fit]"
16,Cc1ccc(-c2csc(N(CCO)CCCn3c(C(F)(F)F)nc4ccccc43)n2)cc1,"inconclusive: 25.9 µM [inhibitor, single point]"
17,O=C(O)CN1C(=O)/C(=C\c2ccccc2OCc2ccc(Cl)cc2)SC1=S,"inconclusive: 16.4 µM [activator, single point]"
18,O=C(CCl)Nc1c(C(=O)Nc2ccc3c(c2)OCCO3)oc2ccccc12,"inconclusive: 18.3 µM [activator, partial curve]"
19,O=C(/C=C/c1ccccc1)NC(=S)NNC(=O)c1ccco1,"inconclusive: 29.1 µM [activator, single point]"
20,CCCCCCCNC(=O)C1(CC2CC(c3ccc(Cl)cc3)=NO2)CCN(C(=O)OC(C)(C)C)CC1 (stereo not given),"inconclusive: 0.58 µM [inhibitor, single point]"
21,COc1ccc(-c2cc(C3CCN(Cc4ccc([N+](=O)[O-])cc4)CC3)[nH]n2)cc1,"inconclusive: 20.6 µM [inhibitor, single point]"
22,COC(=O)c1cc2c(s1)CS(=O)C2 (stereo not given),"inconclusive: 5.17 µM [activator, full curve]"
23,COc1ccc(N(CC(=O)NC2CCCC2)C(=O)CCC(=O)Nc2cc(C)on2)cc1OC,inactive
24,COc1ccc(C2=NN(C(=O)CSc3nnc(C)c(=O)n3N)C(c3ccco3)C2)cc1 (stereo not given),"inconclusive: 18.3 µM [activator, partial curve, poor fit]"

# Reformatted with bars between the fields: entries from further up.
row | Compound | Potency
3 | O=C(CCN1C(=O)C2C3CCC(C3)C2C1=O)Nc1ccc(Cl)cc1Cl (stereo not given) | inconclusive: 6.51 µM [activator, single point]
6 | COc1cccc(C(=O)NN2C(=S)N(c3ccccc3)C(=O)C2CC(N)=O)c1 (stereo not given) | inconclusive: 4.61 µM [activator, partial curve]
8 | Cc1ccc(CC(=O)NCC2CCCCC2)cc1 | inconclusive: 23.1 µM [activator, single point]
15 | CC(Sc1nnc(C2CC2)n1N)C(=O)NC1CCCCC1C (stereo not given) | inconclusive: 0.58 µM [inhibitor, partial curve, poor fit]
18 | O=C(CCl)Nc1c(C(=O)Nc2ccc3c(c2)OCCO3)oc2ccccc12 | inconclusive: 18.3 µM [activator, partial curve]

# Next compounds.

row,Compound,Potency
1,Cc1noc(NS(=O)(=O)c2ccc(NC(=O)C(CC(C)C)N3C(=O)c4ccccc4C3=O)cc2)c1C (stereo not given),inactive
2,O=C(N/N=C/c1ccc([N+](=O)[O-])cc1)c1ccc(NS(=O)(=O)c2cccs2)cc1,inactive
3,Cc1oc(-c2ccccc2)cc1C(=O)Nc1ccc2ccccc2c1,inactive
4,CSc1ccccc1-c1nnc(-c2ccc(Cl)c(Cl)c2)o1,"inconclusive: 4.11 µM [activator, full curve]"
5,CC[n+]1c(/C=C/c2cc([N+](=O)[O-])ccc2O)ccc2ccccc21,inactive
6,COCCn1cc(C(=O)c2cc(Br)ccc2O)cc(C#N)c1=O,"inconclusive: 20.6 µM [inhibitor, single point]"
7,Cc1cc(Sc2nc(N)ncc2[N+](=O)[O-])ncn1,"inconclusive: 25.9 µM [activator, single point]"
8,Cc1ccc(C)c(N2CCN(CC3CCCCC3)CC2)c1,inactive
9,O=C(NCc1ccccc1Br)c1ccncc1,inactive
10,Brc1ccc(N=Nc2ccc3ccccc3n2)cc1,"inconclusive: 2.31 µM [activator, partial curve]"
11,CCN(CC)c1ccc(Nc2cc3n(c(=O)n2)CCc2cc(OC)c(OC)cc2-3)cc1,active: 5.17 µM
12,Fc1ccc2c(c1)[C@H]1OCC[C@H]1[C@@H](c1ccco1)N2,inactive
13,CC(C)(C)C(=O)O/N=C(\N)c1ccc([N+](=O)[O-])s1,"inconclusive: 14.6 µM [inhibitor, single point]"
14,CCOc1ccc(C2C(C#N)=C(N)Oc3nc[nH]c(=O)c32)cc1 (stereo not given),inactive
15,CC(NC(=O)c1ccco1)C(=O)N1CCc2ccccc2C1 (stereo not given),"inconclusive: 20.6 µM [activator, single point]"
16,O=C(Nc1nnc(-c2ccccn2)o1)c1ccc(Br)cc1,inactive
17,COc1cc(/C=C(/C#N)C(=O)NCc2ccccc2)cc(OC)c1OC,"inconclusive: 0.259 µM [inhibitor, partial curve, poor fit]"
18,O=C(COC(=O)c1cnccn1)NC(=O)c1ccccc1,inactive
19,COc1ccc2c(=O)c3c(=O)n(Cc4ccco4)c(-c4cc(OC)c(OC)c(OC)c4)nc3oc2c1,active: 13 µM
20,COc1cc(/C=N/N=C2/C(=O)Nc3ccccc32)cc(OC)c1O,"inconclusive: 16.4 µM [inhibitor, partial curve]"
21,Cn1c(CNC(=O)c2ccco2)nnc1SCC(=O)c1ccccc1,inactive
22,C=CCC1(Cl)C(=O)C(Cl)=C(N2CCOCC2)C1(OC)OC (stereo not given),inactive
